For test [1], the target named is focal adhesion kinase (FAK) (mouse (endogenous in β-TC-6)) (UniProt P34152). The test can be described thus: co-IP; anti-FAK antibody on IP matrix, 300 μg β-TC-6 lysate, 2 h at 4°C, washed with RIPA buffer, western blot; cells in basal conditions or 5-30 min of 25-mM glucose.
Test [2] has as its target synaptosome-associated protein of 25 kDa (SNAP-25) (mouse (endogenous in β-TC-6)) (UniProt P60879). The test can be described thus: co-IP; anti-SNAP-25 antibody on IP matrix, 300 μg β-TC-6 lysate, 2 h at 4°C, washed with RIPA buffer, western blot; cells in basal conditions or 5 min of 25-mM glucose; also 5-30 min of 25-mM glucose with the FAK inhibitor Y15. A general note: In western blotting, separated proteins are transferred to a membrane and probed.

The chains behind the UniProt entries cited, without tags or fusion partners.
UniProt P34152: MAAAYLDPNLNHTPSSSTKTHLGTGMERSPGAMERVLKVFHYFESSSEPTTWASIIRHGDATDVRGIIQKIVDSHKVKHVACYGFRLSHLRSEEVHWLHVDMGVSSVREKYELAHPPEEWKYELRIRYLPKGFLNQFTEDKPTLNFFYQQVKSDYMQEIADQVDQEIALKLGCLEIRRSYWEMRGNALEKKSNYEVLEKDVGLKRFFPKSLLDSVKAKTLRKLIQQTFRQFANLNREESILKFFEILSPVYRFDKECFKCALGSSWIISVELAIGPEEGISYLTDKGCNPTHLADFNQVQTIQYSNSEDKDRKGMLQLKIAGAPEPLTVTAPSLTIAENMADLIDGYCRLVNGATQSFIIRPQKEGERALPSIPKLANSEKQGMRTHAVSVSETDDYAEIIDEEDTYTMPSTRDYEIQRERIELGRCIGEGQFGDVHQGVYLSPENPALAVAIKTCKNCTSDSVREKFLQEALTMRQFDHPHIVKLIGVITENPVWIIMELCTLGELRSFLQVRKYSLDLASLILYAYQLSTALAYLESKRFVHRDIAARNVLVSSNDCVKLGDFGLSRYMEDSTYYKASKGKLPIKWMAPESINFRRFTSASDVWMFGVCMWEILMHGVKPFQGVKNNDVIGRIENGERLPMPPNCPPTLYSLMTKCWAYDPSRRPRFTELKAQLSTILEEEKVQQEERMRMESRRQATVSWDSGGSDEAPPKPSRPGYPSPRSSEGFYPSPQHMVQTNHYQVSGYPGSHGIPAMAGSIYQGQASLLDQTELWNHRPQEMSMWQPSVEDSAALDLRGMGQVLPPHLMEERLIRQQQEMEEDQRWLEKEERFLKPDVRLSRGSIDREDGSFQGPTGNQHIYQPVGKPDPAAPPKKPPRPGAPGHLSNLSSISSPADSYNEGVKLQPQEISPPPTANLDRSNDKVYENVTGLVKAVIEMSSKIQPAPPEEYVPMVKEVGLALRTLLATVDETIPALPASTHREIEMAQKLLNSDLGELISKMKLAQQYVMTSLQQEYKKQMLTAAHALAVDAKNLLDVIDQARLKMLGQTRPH
UniProt P60879: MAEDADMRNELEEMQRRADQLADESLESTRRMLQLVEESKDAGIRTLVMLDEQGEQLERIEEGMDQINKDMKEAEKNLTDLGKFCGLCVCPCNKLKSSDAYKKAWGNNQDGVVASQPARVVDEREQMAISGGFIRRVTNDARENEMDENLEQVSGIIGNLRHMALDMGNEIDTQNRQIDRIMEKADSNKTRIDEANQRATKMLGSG
UniProt Q9JLV1: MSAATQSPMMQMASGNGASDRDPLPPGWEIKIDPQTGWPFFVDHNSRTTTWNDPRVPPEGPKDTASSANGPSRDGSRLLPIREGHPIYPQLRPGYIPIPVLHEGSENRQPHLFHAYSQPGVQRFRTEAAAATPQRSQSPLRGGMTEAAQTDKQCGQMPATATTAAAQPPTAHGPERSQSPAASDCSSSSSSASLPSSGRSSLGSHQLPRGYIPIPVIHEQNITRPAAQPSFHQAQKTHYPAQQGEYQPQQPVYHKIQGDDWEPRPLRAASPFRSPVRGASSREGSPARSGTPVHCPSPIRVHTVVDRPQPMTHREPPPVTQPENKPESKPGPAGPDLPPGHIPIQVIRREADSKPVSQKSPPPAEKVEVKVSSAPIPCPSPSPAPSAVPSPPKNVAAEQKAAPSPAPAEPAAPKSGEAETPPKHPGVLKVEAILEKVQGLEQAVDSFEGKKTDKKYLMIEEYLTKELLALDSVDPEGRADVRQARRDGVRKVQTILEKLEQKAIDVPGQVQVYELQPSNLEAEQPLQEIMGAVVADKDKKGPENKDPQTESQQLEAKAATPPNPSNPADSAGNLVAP

The target is the same in test [3]. The test can be described thus: condition: only cells stimulated with 25-mM glucose for 15 or 30 min; co-IP; anti-SNAP-25 antibody on IP matrix, 300 μg β-TC-6 lysate, 2 h at 4°C, washed with RIPA buffer, western blot; cells stimulated with 25-mM glucose for 15 or 30 min (no Y15).

These are yes or no findings as the source states them, for the method shown. In cells and extracts the contact can be indirect. Some results given as binding are weak or reduced against the parent protein; the word gives no strength.

For the substance “Bcl2-associated athanogene 3 (BAG3) (from UniProt Q9JLV1 1-577)”, the binding result is on record as “binds” in test [1], “binds” in test [2] and “no binding” in test [3].

The values above are taken from PMC4385931.
